In publication PMC11316025:
Results are given in words; binding and its absence hold for the method and conditions named. Binding seen in cells or lysates may run through a third protein. Binding can be weak; no strength is given. For part of these data: Where a sequence is shown, tags or fusion partners need not be part of it.

Protein sequences, listed by entry. Tags and fused reporters are not part of them. Lines headed by an entry give the natural chain unless they say otherwise; changes in a name come on top.
UniProt P10301: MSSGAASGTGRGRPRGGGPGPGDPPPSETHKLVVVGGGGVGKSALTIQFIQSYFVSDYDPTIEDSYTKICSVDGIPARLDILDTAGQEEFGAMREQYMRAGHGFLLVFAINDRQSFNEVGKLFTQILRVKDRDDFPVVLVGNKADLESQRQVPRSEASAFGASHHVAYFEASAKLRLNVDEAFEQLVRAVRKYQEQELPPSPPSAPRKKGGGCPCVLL

What was measured:
[1] = biological target: T1, full-length FLAG-tagged RASSF5 (human) (UniProt Q8WWW0); assay: co-IP; HEK 293T co-transfected with FLAG-tagged RASSF and VENUS-tagged GTPase; lysis in 20 mM Tris-HCl pH 7.5, 150 mM NaCl, 5 mM MgCl2, 10% glycerol, 1% Triton X-100, 1 mM DTT; anti-FLAG on Protein G Sepharose 1 h, three washes; blot with anti-GFP
T1 sequence: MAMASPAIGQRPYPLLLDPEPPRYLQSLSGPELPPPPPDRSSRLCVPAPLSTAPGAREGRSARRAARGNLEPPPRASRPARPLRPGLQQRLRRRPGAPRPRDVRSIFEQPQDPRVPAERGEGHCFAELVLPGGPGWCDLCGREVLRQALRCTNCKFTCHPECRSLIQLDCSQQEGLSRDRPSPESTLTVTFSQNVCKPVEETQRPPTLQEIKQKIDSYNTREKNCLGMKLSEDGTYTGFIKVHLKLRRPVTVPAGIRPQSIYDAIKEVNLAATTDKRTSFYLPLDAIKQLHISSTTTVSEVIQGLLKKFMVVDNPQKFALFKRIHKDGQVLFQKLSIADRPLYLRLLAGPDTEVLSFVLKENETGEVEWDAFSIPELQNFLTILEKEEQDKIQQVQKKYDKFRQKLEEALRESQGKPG

[2] = biological target: GST-tagged RASSF5 RA domain (human) (UniProt Q8WWW0); assay: pull-down; validation pull-downs (Fig. EV1C, Fig. 2A): recombinant purified GST-RASSF5 RA or GST alone with HEK 293T lysates expressing VENUS-tagged GTPases (activated, wild-type or dominant-negative variants); Western blot; only the target purified
[3] = biological target: GST-tagged RASSF5 RA domain (human) (UniProt Q8WWW0); assay: pull-down; systematic screen: 2 µM purified GST-tagged RBD/RA domain (or GST alone) and glutathione beads incubated 30 min with HEK 293T lysate expressing a VENUS-tagged GTPase; Bio-Spin columns on a vacuum manifold, washed three times with lysis buffer (20 mM Tris-HCl pH 7.5, 150 mM NaCl, 5 mM MgCl2, 10% glycerol, 1% Triton X-100, 1% NP-40, 1 mM DTT); Western blot; GST-alone signal subtracted; heatmap from two replicates; only the target purified

Measured: binding

VENUS-RRAS-G30V (from UniProt P10301)
binds: all assays above
